# From PubChem BioAssay AID504467 (National Center for Advancing Translational Sciences (NCATS), 2011)
# Several values for one entry are separate records, joined by “and”; a condition that tells them apart may be missing. Identical values can stand only once. Screen size: about 330,000 compounds; about 7,700 (2.3%) were called active. This list was built around the results that the source calls inconclusive (neither active nor inactive); the mix of calls is not that of the screen. Calls follow the shape of the dose curve; as a rule, active = well fitted inhibition curve with a large enough effect; inconclusive = small, poorly fitted or top-dose-only effect, or effect the other way; inactive = flat fitted curve, though single readings scatter. Where the call is inconclusive, the potency comes from a doubtful curve fit.
# Test: qHTS screen for small molecules that inhibit ELG1-dependent DNA repair in human embryonic kidney (HEK293T) cells expressing luciferase-tagged ELG1; also: nearly all actives have a fitted effect of over 55% in size
# Conditions: HEK293T ELG1-luciferase reporter, luminescence, 16 h, DNA damage induced by 5-fluorouridine; series mostly up to 46.1 µM
# In short: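 Cells (2,000 per well) received 5-fluorouridine plus test compound or DMSO and were incubated 16 hr at 37 °C, 5% CO2. Luciferase activity was read by luminescence 30 min after ONE-Glo addition; signal suppression marked inhibition of damage-induced ELG1 function.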
# Potency is read from the fitted curve at half-maximal effect.
row,Compound,Potency
1,O=S(=O)(NCc1cccnc1)c1ccc(Cl)c2ccccc12,"inconclusive: 29.1 µM [inhibitor, single point]"
2,COCc1nnc(NC(=O)CCSc2ccccc2)s1,"inconclusive: 32.6 µM [activator, single point]"
3,O=C(NCCc1ccccc1)c1ccc(CS(=O)(=O)c2ccc(Cl)cc2)o1,"inconclusive: 23.1 µM [inhibitor, partial curve, poor fit]"
4,CCCn1c(-c2nonc2N)nc2ccccc21,active: 16.4 µM
5,N#Cc1c(NC(=S)NC(=O)Cc2cccs2)sc2c1CCCCC2,"inconclusive: 29.1 µM [activator, single point]"
6,O=C(CSc1cn(CCNC(=O)c2cccs2)c2ccccc12)NC1CCCCC1,"inconclusive: 20.6 µM [inhibitor, partial curve]"
7,O=C(Nc1nccs1)c1ccc(Br)cc1,"inconclusive: 14.6 µM [activator, partial curve]"
8,CNC(=O)c1c(NC(=O)c2ccc(S(=O)(=O)N(C)c3ccccc3)cc2)sc2c1CCN(C(C)C)C2,"inconclusive: 4.61 µM [inhibitor, full curve]"
9,CCCC(=O)Nc1ccc2nc(SCC(=O)Nc3ccc(N4CCOCC4)c(Cl)c3)sc2c1,"inconclusive: 16.4 µM [inhibitor, single point]"
10,CN(C)CCN(C(=O)c1ccc2c(c1)OCCO2)c1nc2c(Cl)cccc2s1,inactive
11,O=C(C[n+]1ccccc1)Nc1c(Cl)cc(Cl)cc1Cl,inactive
12,O=C(Nc1nnc(C2CCCCC2)s1)c1ccc(Br)s1,"inconclusive: 4.61 µM [activator, partial curve, poor fit]"
13,O=C(N/N=C/c1cc(Br)ccc1O)c1ccncc1,"inconclusive: 6.51 µM [inhibitor, single point]"
14,CCOc1cccc(-c2cc(C(=O)NN)[nH]n2)c1,"inconclusive: 18.3 µM [activator, partial curve, poor fit]"
15,O=[N+]([O-])c1cc2c(c(CSc3nnnn3-c3ccc(O)cc3)c1)OCOC2,inactive
16,O=C(c1ccccc1)[C@@H]1[C@@H](C(=O)c2ccc(F)cc2)[C@@]2(C(=O)Nc3ccccc32)[C@H]2c3ccccc3C=CN12,"inconclusive: 20.6 µM [inhibitor, single point]"
17,CC1CNCCN1S(=O)(=O)c1cccc2cnccc12 (stereo not drawn),"inconclusive: 15.8 µM [inhibitor, single point] and inconclusive: 11.6 µM [inhibitor, partial curve, poor fit]"
18,COC(=O)CNC(c1ccccc1)c1cc(Br)ccc1NS(=O)(=O)c1ccc(C)cc1 (stereo not drawn),inactive
19,C#CCNC(=O)/C=C/c1ccc(C)cc1,"inconclusive: 18.4 µM [activator, partial curve]"
20,O=C(Nc1ccc(C(=O)NCc2ccccc2)cc1)C1=CSCCO1,"inconclusive: 18.3 µM [activator, partial curve]"
21,CCOC(=O)/C(=N\Nc1cccc(Cl)c1)Sc1nnc(-c2ccc(OC)cc2)n1C,inactive
22,COc1ccc(CNCC(O)(c2ccc(Cl)cc2)c2ccc(Cl)cc2)cc1,inactive
23,CNC(=O)CSc1nc2c(c(=O)n(C)c(=O)n2C)n1Cc1ccc(C)cc1,"inconclusive: 32.6 µM [activator, partial curve, poor fit]"

row,Compound,Potency
1,O=C(CCc1ccccc1)N[C@@H]1c2ccccc2CC[C@H]1OCc1ccccc1,"inconclusive: 25.9 µM [inhibitor, partial curve, poor fit]"
2,CC(NC(=O)CCc1c[nH]c2ccccc12)c1ccccc1 (stereo not drawn),inactive
3,CCN(CC)CCOCCOc1cc(C)c(Cl)c(C)c1,inactive
4,COC(=O)c1c(NC(=O)CSc2nnc(Cn3nnc4ccccc43)n2C)sc(C)c1C,"inconclusive: 29.1 µM [inhibitor, single point]"
5,COc1cccc2cc(-c3nc4ccccc4[nH]3)c(=O)oc12,"inconclusive: 3.26 µM [activator, full curve]"
6,O=C(N=C1SC2CS(=O)(=O)CC2N1c1cccc(Cl)c1Cl)C1CCCO1 (stereo not drawn),"inconclusive: 16.4 µM [activator, partial curve, poor fit]"
7,C(=C\c1cc(/C=C/c2ccccc2)ncn1)/c1ccccc1,"inconclusive: 10.3 µM [activator, partial curve]"
8,c1ccc2c(N3CCCC3)nc(-c3ccncc3)nc2c1,"inconclusive: 35.5 µM [inhibitor, single point]"
9,Cc1sc2ncnc(N3CCC(C(=O)NNC(=O)c4ccc(Cl)cc4)CC3)c2c1C,"inconclusive: 23.1 µM [inhibitor, partial curve]"
10,Cc1ccc2nc(-c3cccs3)oc(=O)c2c1,"inconclusive: 14.6 µM [activator, partial curve, poor fit]"
11,C[C@H]1COC(=O)[C@H](Cc2ccc(F)cc2)C/C=C\C[C@H](CC(=O)N(CCO)Cc2ccccc2)C(=O)N1,"inconclusive: 10.3 µM [activator, partial curve, poor fit]"
12,COc1ccccc1O,"inconclusive: 0.58 µM [inhibitor, partial curve, poor fit]"
13,O=C(c1cc(COc2c(F)cccc2F)on1)N1CCC(c2ccncc2)CC1,"inconclusive: 6.51 µM [inhibitor, single point]"
14,CCN(CC)S(=O)(=O)c1cccc(C(=O)NCCCn2ccnc2)c1,"inconclusive: 32.6 µM [inhibitor, single point]"
15,CCOC(=O)/C(C#N)=N/Nc1ccccc1C#N,inactive
16,O=C(NC(=O)N1CCN(c2ccccc2)CC1)c1ccc(Cl)cc1,"inconclusive: 10.3 µM [activator, partial curve]"
17,COCc1cc(C)nc(OCC(=O)N/N=C/c2ccccc2O)c1C#N,"inconclusive: 16.4 µM [inhibitor, partial curve]"
18,O=C(CSc1ncnc2sc3c(c12)CCCC3)NC1CCS(=O)(=O)C1 (stereo not drawn),inactive
19,CC1=CC(=C2N=C(c3ccccc3)OC2=O)C=C(C)O1,"inconclusive: 11.6 µM [activator, partial curve]"
20,Cc1cccc(CSc2ccc(-c3cccs3)nn2)c1,"inconclusive: 14.6 µM [activator, partial curve]"
21,COc1ccc(OC)c(NC(=O)c2ccc3c(c2)OCO3)c1,"inconclusive: 5.8 µM [activator, full curve, poor fit]"
22,Cc1cc(NC(=O)CC2Oc3ccccc3NC2=O)ccc1Br (stereo not drawn),inactive
23,O=S(=O)(Nc1ccc2c(c1)OCCO2)c1cccc2nsnc12,"inconclusive: 20.6 µM [activator, partial curve]"

row,Compound,Potency
1,O=C(NCCc1csc(-c2cccnc2)n1)c1cccs1,"inconclusive: 29.1 µM [inhibitor, partial curve, poor fit]"
2,CC(C)NC(=O)N(C)C[C@H]1Oc2ccc(NC(=O)C3CC3)cc2C(=O)N([C@H](C)CO)C[C@@H]1C,"inconclusive: 25.9 µM [activator, single point]"
3,CNC(=O)C1CCN(S(=O)(=O)c2c(C)noc2/C=C/c2ccccc2F)CC1,"inconclusive: 29.1 µM [inhibitor, single point]"
4,CCCCn1c(N)c(N(CCOC)C(=O)c2cc3c(s2)CCC(C)C3)c(=O)[nH]c1=O (stereo not drawn),inactive
5,Cc1cccn2c(=O)c(/C=C(\C#N)S(=O)(=O)c3ccccc3)c(N3CCN(Cc4ccccc4)CC3)nc12,inactive
6,O=C(Nc1nc(-c2ccc(-c3ccccc3)cc2)cs1)C1CCCO1 (stereo not drawn),"inconclusive: 20.6 µM [inhibitor, single point]"
7,Cn1nccc1NC(=O)Nc1cccc(Cl)c1,inactive
8,Cc1ccccc1S(=O)(=O)NCc1ccc(N2CCN(C)CC2)cc1,inactive
9,COc1ccc(NC(=O)Nc2nnc(-c3ccccc3F)s2)cc1,"inconclusive: 10.3 µM [activator, partial curve]"
10,C/C(=N\NC(=O)c1cccc2ccccc12)c1cccs1,"inconclusive: 18.3 µM [activator, partial curve]"
11,O=C(/C=C/c1cccc2ccccc12)NCCC1=CCCCC1,"inconclusive: 29.1 µM [activator, single point]"
12,O=C(Nc1cc2ccccc2oc1=O)C1CCCCC1,"inconclusive: 2.59 µM [activator, full curve]"
13,NC(=O)c1ccc(NC(=O)CCN2C(=O)c3ccccc3C2=O)cc1,inactive
14,N/C(=N\OC(=O)c1cc(Br)ccc1Cl)c1cccnc1,"inconclusive: 18.3 µM [activator, partial curve]"
15,COC(=O)c1sccc1NC(=O)COc1ccc(F)cc1Cl,"inconclusive: 14.6 µM [activator, partial curve]"
16,O=C(C1=C[C@H](c2ccc(C(F)(F)F)cc2)C[C@H](OCc2ccc(CO)cc2)O1)N1CCN(Cc2ccccc2)CC1,"inconclusive: 16.4 µM [inhibitor, partial curve, poor fit]"
17,COc1ccccc1C(=O)COC(=O)CN1C(=O)NC2(CCCC2)C1=O,inactive
18,O=c1cc(NS(=O)(=O)c2ccccc2)nc(SCc2ccc(Cl)cc2)[nH]1,"inconclusive: 20.6 µM [activator, single point]"
19,CN(C)c1ccc(/C=C/C=C2/SC(=S)N(c3ccccc3)C2=O)cc1,"inconclusive: 8.2 µM [activator, partial curve]"
20,O=c1c2ccccc2nnn1CSc1ccccc1F,"inconclusive: 2.91 µM [activator, full curve]"
21,COc1ccccc1CCNS(=O)(=O)CCNC(=O)c1ccccc1,inactive
22,O=C(NC1CCCC1)C(c1c[nH]c2ccccc12)N(C(=O)Cn1nnc(-c2ccc(Cl)cc2)n1)c1ccccc1 (stereo not drawn),"inconclusive: 23.1 µM [inhibitor, partial curve]"
